Measurements as given in patent US8338480B2, “Combination treatment of metabolic disorders” (Wellstat Therapeutics Corporation, priority 2006, dated 2012).
Structures can show the parent of a compound that is named as a salt. For at least one compound, name, drawing or mass did not settle the structure.

Assays:
Type in all cases: in vivo
db/db mice [1] = assay: Serum glucose in db/db mice, combinations with rosiglitazone or pioglitazone, 4 weeks (Example 5); conditions: oral once per day for 28 days
Experimental: (§1) Male db/db mice have a defect in the receptor for the appetite-regulating protein leptin and consequently develop hyperphagia, obesity, insulin resistance, hyperglycemia, hypertriglyceridemia. Male db/db mice are an accepted animal model for Type II diabetes. The effect of a range of single daily doses of orally administered Compound BI was assessed in this model, and the efficacy of rosiglitazone alone and in combination with Compound BI was also examined.
Male C57BL/Ksola db/db mice (“db/db mice”) were obtained from Harlan (Indianapolis, Ind.) and allowed to acclimate for a minimum of one week.
(§2) Body weights and blood glucose levels were measured and animals were sorted groups of 6-7 mice with equivalent mean body weights in each group. […].
• 12. Vehicle • 13. Compound BI 100 mg/kg/day • 14. Rosiglitazone 3 mg/kg • 15. Rosiglitazone 3 mg/kg+Compound BI 100 mg/kg • 16. Pioglitazone 30 mg/kg • 17. Pioglitazone 30 mg/kg+Compound BI 100 mg/kg • 18. Pioglitazone 100 mg/kg • 19. Pioglitazone 100 mg/kg+Compound BI 100 mg/kg
Drug preparation: Compound BI was suspended in a vehicle comprising 1% aqueous hydroxypropylmethylcellulose, using a tissue homogenizer to minimize particle size and maximize uniformity of the suspension. Pioglitazone and rosiglitazone were suspended in the same vehicle after pulverization of commercial tablets of each of these drugs. […]

db/db mice [2] = assay: Serum glucose and triglycerides in db/db mice treated for 4 weeks (Example 2)
Experimental: as §1
Male C57BL/Ksola db/db mice (“db/db mice”) were obtained from Harlan (Indianapolis, Ind.) and allowed to acclimate for a minimum of one week. […] Male C57BL/6 mice of the same age were used as lean nondiabetic controls.
as §2
(§3) • 1. Lean Control (no treatment) • 2. Vehicle • 3. Compound BI 30 mg/kg/day • 4. Compound BI 100 mg/kg/day • 5. Compound BI 150 mg/kg/day • 6. Rosiglitazone 3 mg/kg • 7. Rosiglitazone 3 mg/kg+Compound BI 30 mg/kg • 8. Rosiglitazone 3 mg/kg+Compound BI 100 mg/kg • 9. Rosiglitazone 20 mg/kg • 10. Rosiglitazone 20 mg/kg+Compound BI 30 mg/kg • 11. Rosiglitazone 20 mg/kg+Compound BI 100 mg/kg […]

[3] = test system: Uncoupling Protein 1 (UCP1); assay: UCP1 content of white adipose tissue by Western blot in db/db mice (Example 6); conditions: 2 weeks, Compound BI 100 mg/kg/day, RSG 3 mg/kg/day, alone or combined
Description: Uncoupling Protein 1 (UCP1) is a protein that can dissipate metabolic energy when expressed in the mitochondrial membrane. It is present in brown adipose tissue (BAT; the brown color is due to a higher density of mitochondria than in white adipose tissue) in small mammals where its main function is to generate heat, but it can also serve to accelerate combustion of fatty acids. This latter function is especially important when UCP1 is expressed in tissues other than brown fat, since depots of brown fat are limited in humans Expression of UCP1 in white fat alters the functional phenotype of the tissue from fat storage to fat combustion. Transgenic mice expressing UCP1 in white adipose tissue are resistant to obesity and diabetes induced by a high fat diet. Pharmacological induction of UCP1 expression in white adipose tissue is therefore an attractive strategy for promoting weight reduction and resistance to body weight gain. […]
Treatment cohorts were given daily oral doses of vehicle, Compound BI (100 mg/kg/day), rosiglitazone (RSG; 3 mg/kg/day) or a combination of the two drugs for 2 weeks. […] Blood samples were also collected prior to sacrifice via the retro-orbital plexus, and processed and analyzed for serum glucose (AniLytics, Inc.; Gaithersburg Md.). […]

db/db mice [4] = assay: Body weight and food consumption in db/db mice treated for 4 weeks (Example 2); conditions: Compound BI 30 mg/kg, RSG 3 mg/kg, alone or combined
Experimental: as §1
Male C57BL/Ksola db/db mice (“db/db mice”) were obtained from Harlan (Indianapolis, Ind.) and allowed to acclimate for a minimum of one week. Animals received Purina 5008 Lab Diet and tap water ad libitum and were housed with 3-4 animals per cage. Male C57BL/6 mice of the same age were used as lean nondiabetic controls.
as §2, §3

Adiponectin = assay: Serum adiponectin in db/db mice after two weeks (Example 4); conditions: agent alone
Description: Adiponectin is an glycoprotein secreted from white adipose tissue. Adiponectin improves insulin sensitive in other tissues, e.g. muscle and liver, and is also protective against atherosclerosis. Thiazolidinedione antidiabetic agents such as rosiglitazone or pioglitazone act largely via action at the PPAR-gamma, a nuclear receptor involved in regulation of fuel metabolism. PPAR-gamma agonists enhance adiponectin production by adipose tissue, and this may contribute to their beneficial effects in diabetes and related metabolic disorders.
• 8. Vehicle (1% hydroxypropylmethylcellulose) • 9. Compound BI 100 mg/kg • 10. Rosiglitazone (RSG) 3 mg/kg • 11. Compound BI 100 mg/kg+RSG 3 mg/kg • 12. Compound CF 100 mg/kg • 13. Compound CF 100 mg/kg+RSG 3 mg/kg • 14. Compound CT 100 mg/kg+RSG 3 mg/kg • 15. […]
After two weeks, blood samples were collected from the retro-orbital sinus and processed for serum chemistry measurements.

[5] = test system: Gold Thioglucose-obese (GTG) mice; assay: Body weight and cumulative food intake in gold thioglucose-obese mice (Example 1); conditions: over the course of 5 weeks
Experimental: Systemic administration of gold thioglucose (GTG) damages glucose-sensing neurons in the hypothalamus, and consequently impairs regulation of satiety, leading to chronic hyperphagia and consequent obesity. Male C57BL/6J mice, weighing 22 to 25 grams received gold thioglucose (Sigma Chemical Company, St. Louis Mo.) by intraperitoneal injection (500 mg/kg). Mice were given a high fat diet (45% Kcal fat; D12451, Research Diets, New Brunswick, N.J.) for 8 weeks to exacerbate obesity.
Mice were then divided into groups comprising 5 mice each, sorted so that each group had similar mean body weights (approximately 47 grams). Mice received single daily oral treatment with Compound BI, rosiglitazone or combinations of the two drugs. A group of lean control mice on a standard low fat rodent chow was also included.
(§4) • 1. Vehicle (1% hydroxypropylmethylcellulose) • 2. Compound BI 30 mg/kg • 3. Compound BI 100 mg/kg • 4. Rosiglitazone (RSG) 3 mg/kg • 5. RSG 3 mg/kg+Compound BI 30 mg/kg • 6. RSG 3 mg/kg+Compound BI 100 mg/kg • 7. Lean Control (no treatment)

db/db mice [6] = assay: Serum glucose in db/db mice treated for two weeks (Example 6); conditions: 2 weeks, Compound BI 100 mg/kg/day, RSG 3 mg/kg/day, alone or combined
Experimental: A minimum of 7 days was allowed for adaptation after arrival.
Treatment cohorts were given daily oral doses of vehicle, Compound BI (100 mg/kg/day), rosiglitazone (RSG; 3 mg/kg/day) or a combination of the two drugs for 2 weeks. At the end of the treatment period epididymal fat pads were excised, frozen and subsequently processed for measurement of UCP1 by Western Blot analysis. Blood samples were also collected prior to sacrifice via the retro-orbital plexus, and processed and analyzed for serum glucose (AniLytics, Inc.; Gaithersburg Md.).

[7] = test system: Gold Thioglucose-obese mice; assay: Serum glucose, triglycerides and free fatty acids in gold thioglucose-obese mice (Example 1); conditions: GTG-obese mice; after two weeks
Experimental: Systemic administration of gold thioglucose (GTG) damages glucose-sensing neurons in the hypothalamus, and consequently impairs regulation of satiety, leading to chronic hyperphagia and consequent obesity.
Mice received single daily oral treatment with Compound BI, rosiglitazone or combinations of the two drugs. A group of lean control mice on a standard low fat rodent chow was also included.
as §4
After two weeks, blood samples were collected from the retro-orbital sinus for measurement of serum glucose, triglycerides, and free fatty acids.

Row | Compound | serum glucose (in words) (db/db mice [1]) | hyperglycemia, hypertriglyceridemia and free fatty acid levels (in words) (db/db mice [2]; combination: rosiglitazone 3 mg/kg/day + Compound BI 30 mg/kg/day) | serum glucose (in words) (db/db mice [2]; oral once per day for 28 days) | UCP1 content of white adipose tissue (in words) [3] | body weight and food intake (in words) (db/db mice [4]) | serum adiponectin, individual agents (in words) (Adiponectin) | body weight (in words) [5] | serum glucose (in words) (db/db mice [6]) | blood glucose, triglycerides and free fatty acids (in words) [7]
1 | CCc1ccc(CCOc2ccc(CC3SC(=O)NC3=O)cc2)nc1 (stereo not drawn) [PIO, pioglitazone hydrochloride] | relatively small effect on serum glucose | – | – | – | – | – | – | – | –
2 | CN(CCOc1ccc(CC2SC(=O)NC2=O)cc1)c1ccccn1 (stereo not drawn) [RSG, rosiglitazone maleate, reference compound] | – | reduced these markers of diabetes and dyslipidemia | dose dependent lowering of serum glucose | had a larger effect | did not attenuate body weight gain or food intake | slightly elevated serum adiponectin | did not reduce body weight | reduced serum glucose relative to vehicle treated control animals | dose-dependent decreases
